Results: the supplement of paper PMC8728848
Some of the results follow.

Legend:
Experiment in all cases: glycan array binding signal (z-score within array); higher = stronger binding
Settings in all cases: glycan notation: IUPAC condensed, linker removed
[1] = molecular target: Neu5Ac(a2-3)GalNAc(b1-4)GlcNAc
Method in brief: (§1)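 Glycan array binding is given as a within-array Z-score, which can be read as non-binding when negative. The arrays, 3228 of them, came from the Consortium for Functional Glycomics database and were retained only where the protein sequence was available. Z-scores were averaged across arrays of the same protein sequence at different concentrations or buffers and across linkers.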

[2] = molecular target: Neu5Ac(a2-3)[GalNAc(b1-4)]Gal(b1-4)Glc
Method in brief: as §1

[3] = molecular target: Neu5Ac(a2-3)[GalNAc(b1-4)]Gal(b1-4)GlcNAc
Method in brief: as §1

[4] = molecular target: Neu5Ac(a2-3)[GalNAc(b1-4)]Gal(b1-4)GlcNAc(b1-3)GalNAc
Method in brief: as §1

[5] = molecular target: Neu5Ac(a2-3)[Neu5Ac(a2-6)]GalNAc
Method in brief: as §1

Neu5Ac(a2-6)Gal = molecular target: Neu5Ac(a2-6)Gal
Method in brief: as §1

[6] = molecular target: Neu5Ac(a2-6)Gal(b1-3)GlcNAc(b1-3)[Gal(b1-4)GlcNAc(b1-6)]Gal(b1-4)Glc
Method in brief: as §1

Neu5Ac(a2-6)Gal(b1-4)Glc = molecular target: Neu5Ac(a2-6)Gal(b1-4)Glc
Method in brief: as §1

[7] = molecular target: Neu5Ac(a2-6)Gal(b1-4)GlcNAc
Method in brief: as §1

[8] = molecular target: Neu5Ac(a2-6)Gal(b1-4)GlcNAc(b1-2)Man
Method in brief: as §1

[9] = molecular target: Neu5Ac(a2-6)Gal(b1-4)GlcNAc(b1-2)Man(a1-3)Man(b1-4)GlcNAc(b1-4)GlcNAc
Method in brief: as §1

[10] = molecular target: Neu5Ac(a2-6)Gal(b1-4)GlcNAc(b1-2)Man(a1-3)[Gal(b1-4)GlcNAc(b1-2)Man(a1-6)]Man(b1-4)GlcNAc(b1-4)GlcNAc
Method in brief: as §1

[11] = molecular target: Neu5Ac(a2-6)Gal(b1-4)GlcNAc(b1-2)Man(a1-3)[GlcNAc(b1-2)Man(a1-6)]Man(b1-4)GlcNAc(b1-4)GlcNAc
Method in brief: as §1

[12] = molecular target: Neu5Ac(a2-6)Gal(b1-4)GlcNAc(b1-2)Man(a1-3)[GlcNAc(b1-4)][Neu5Ac(a2-6)Gal(b1-4)GlcNAc(b1-2)Man(a1-6)]Man(b1-4)GlcNAc(b1-4)GlcNAc
Method in brief: as §1

[13] = molecular target: Neu5Ac(a2-6)Gal(b1-4)GlcNAc(b1-2)Man(a1-3)[Man(a1-6)]Man(b1-4)GlcNAc(b1-4)GlcNAc
Method in brief: as §1

[14] = molecular target: Neu5Ac(a2-6)Gal(b1-4)GlcNAc(b1-2)Man(a1-3)[Neu5Ac(a2-3)Gal(b1-4)GlcNAc(b1-2)Man(a1-6)]Man(b1-4)GlcNAc(b1-4)GlcNAc
Method in brief: as §1

[15] = molecular target: Neu5Ac(a2-6)Gal(b1-4)GlcNAc(b1-2)Man(a1-3)[Neu5Ac(a2-6)Gal(b1-4)GlcNAc(b1-2)Man(a1-6)]Man(b1-4)GlcNAc(b1-4)GlcNAc
Method in brief: as §1

[16] = molecular target: Neu5Ac(a2-6)Gal(b1-4)GlcNAc(b1-2)Man(a1-3)[Neu5Ac(a2-6)Gal(b1-4)GlcNAc(b1-2)Man(a1-6)]Man(b1-4)GlcNAc(b1-4)[Fuc(a1-6)]GlcNAc
Method in brief: as §1

[17] = molecular target: Neu5Ac(a2-6)Gal(b1-4)GlcNAc(b1-2)Man(a1-6)Man(b1-4)GlcNAc(b1-4)GlcNAc
Method in brief: as §1

[18] = molecular target: Neu5Ac(a2-6)Gal(b1-4)GlcNAc(b1-2)Man(a1-6)[Gal(b1-4)GlcNAc(b1-2)Man(a1-3)]Man(b1-4)GlcNAc(b1-4)GlcNAc
Method in brief: as §1

[19] = molecular target: Neu5Ac(a2-6)Gal(b1-4)GlcNAc(b1-2)Man(a1-6)[GlcNAc(b1-2)Man(a1-3)]Man(b1-4)GlcNAc(b1-4)GlcNAc
Method in brief: as §1

[20] = molecular target: Neu5Ac(a2-6)Gal(b1-4)GlcNAc(b1-2)Man(a1-6)[Man(a1-3)]Man(b1-4)GlcNAc(b1-4)GlcNAc
Method in brief: as §1

[21] = molecular target: Neu5Ac(a2-6)Gal(b1-4)GlcNAc(b1-2)[Neu5Ac(a2-6)Gal(b1-4)GlcNAc(b1-4)]Man(a1-3)[GlcNAc(b1-4)][Neu5Ac(a2-6)Gal(b1-4)GlcNAc(b1-2)[Neu5Ac(a2-6)Gal(b1-4)GlcNAc(b1-6)]Man(a1-6)]Man(b1-4)GlcNAc(b1-4)GlcNAc
Method in brief: as §1

[22] = molecular target: Neu5Ac(a2-6)Gal(b1-4)GlcNAc(b1-2)[Neu5Ac(a2-6)Gal(b1-4)GlcNAc(b1-4)]Man(a1-3)[GlcNAc(b1-4)][Neu5Ac(a2-6)Gal(b1-4)GlcNAc(b1-4)Man(a1-6)]Man(b1-4)GlcNAc(b1-4)GlcNAc
Method in brief: as §1

[23] = molecular target: Neu5Ac(a2-6)Gal(b1-4)GlcNAc(b1-2)[Neu5Ac(a2-6)Gal(b1-4)GlcNAc(b1-6)]Man(a1-6)[Neu5Ac(a2-6)Gal(b1-4)GlcNAc(b1-2)Man(a1-3)][GlcNAc(b1-4)]Man(b1-4)GlcNAc(b1-4)GlcNAc
Method in brief: as §1

[24] = molecular target: Neu5Ac(a2-6)Gal(b1-4)GlcNAc(b1-3)Gal(b1-3)GlcNAc
Method in brief: as §1

[25] = molecular target: Neu5Ac(a2-6)Gal(b1-4)GlcNAc(b1-3)Gal(b1-4)GlcNAc
Method in brief: as §1

[26] = molecular target: Neu5Ac(a2-6)Gal(b1-4)GlcNAc(b1-3)Gal(b1-4)GlcNAc(b1-2)Man(a1-3)[Neu5Ac(a2-6)Gal(b1-4)GlcNAc(b1-3)Gal(b1-4)GlcNAc(b1-2)Man(a1-6)]GalNAc
Method in brief: as §1

[27] = molecular target: Neu5Ac(a2-6)Gal(b1-4)GlcNAc(b1-3)Gal(b1-4)GlcNAc(b1-3)Gal(b1-4)GlcNAc
Method in brief: as §1

[28] = molecular target: Neu5Ac(a2-6)Gal(b1-4)GlcNAc(b1-3)Gal(b1-4)GlcNAc(b1-3)Gal(b1-4)GlcNAc(b1-2)Man(a1-3)[Neu5Ac(a2-6)Gal(b1-4)GlcNAc(b1-3)Gal(b1-4)GlcNAc(b1-3)Gal(b1-4)GlcNAc(b1-2)Man(a1-6)]GalNAc
Method in brief: as §1

[29] = molecular target: Neu5Ac(a2-6)Gal(b1-4)GlcNAc(b1-3)Gal(b1-4)GlcNAc(b1-3)GalNAc
Method in brief: as §1

[30] = molecular target: Neu5Ac(a2-6)Gal(b1-4)GlcNAc(b1-3)Gal(b1-4)GlcNAc(b1-3)[Neu5Ac(a2-6)Gal(b1-4)GlcNAc(b1-3)Gal(b1-4)GlcNAc(b1-6)]GalNAc
Method in brief: as §1

[31] = molecular target: Neu5Ac(a2-6)Gal(b1-4)GlcNAc(b1-3)Gal(b1-4)GlcNAc(b1-6)[Gal(b1-3)]GalNAc
Method in brief: as §1

[32] = molecular target: Neu5Ac(a2-6)Gal(b1-4)GlcNAc(b1-3)Gal(b1-4)[Fuc(a1-3)]GlcNAc(b1-3)Gal(b1-4)[Fuc(a1-3)]GlcNAc
Method in brief: as §1

[33] = molecular target: Neu5Ac(a2-6)Gal(b1-4)GlcNAc(b1-3)GalNAc
Method in brief: as §1

[34] = molecular target: Neu5Ac(a2-6)Gal(b1-4)GlcNAc(b1-3)[Neu5Ac(a2-6)Gal(b1-4)GlcNAc(b1-6)]GalNAc
Method in brief: as §1

[35] = molecular target: Neu5Ac(a2-6)Gal(b1-4)GlcNAc(b1-6)GalNAc
Method in brief: as §1

B1: FliC (Clostridium difficile) (protein)
chain: MRVNTNVSALIANNQMGRNVNGQSKSMEKLSSGVRIKRAADDAAGLAISEKMRAQIKGLDQAGRNVQDGISVVQTAEGSLEETGNILQRMRTLSLQSANEINNTEEREKIADELTQLKDEIERISSSTEFNGKKLLDGTSSTIRLQVGASYGTNVSGTSNNNNEIKIQLVNTASIMASAGITTASIGSMKAGGTTGTDAAKTMVSSLDAALKSLNSSRAKLGAQQNRLESTQNNLNNTLENVTAAESRIRDTDVASEMVNLSKMNILVQASQSMLAQANQQPQGVLQLLG
glycan array binding signal (z-score) [1]: -0.324 | glycan array binding signal (z-score) [2]: -0.049 | glycan array binding signal (z-score) [3]: -0.037 | glycan array binding signal (z-score) [4]: -0.543 | glycan array binding signal (z-score) [5]: -0.725 | glycan array binding signal (z-score) (Neu5Ac(a2-6)Gal): 0.803 | glycan array binding signal (z-score) [6]: -0.2 | glycan array binding signal (z-score) (Neu5Ac(a2-6)Gal(b1-4)Glc): 0.551 | glycan array binding signal (z-score) [7]: -0.807 | glycan array binding signal (z-score) [8]: 0.072 | glycan array binding signal (z-score) [9]: -0.236 | glycan array binding signal (z-score) [10]: -0.515 | glycan array binding signal (z-score) [11]: 0.511 | glycan array binding signal (z-score) [12]: -0.478 | glycan array binding signal (z-score) [13]: -0.225 | glycan array binding signal (z-score) [14]: -0.327 | glycan array binding signal (z-score) [15]: -0.029 | glycan array binding signal (z-score) [16]: -0.282 | glycan array binding signal (z-score) [17]: -0.54 | glycan array binding signal (z-score) [18]: -0.817 | glycan array binding signal (z-score) [19]: 0.217 | glycan array binding signal (z-score) [20]: -0.487 | glycan array binding signal (z-score) [21]: -0.178 | glycan array binding signal (z-score) [22]: 0.199 | glycan array binding signal (z-score) [23]: -0.518 | glycan array binding signal (z-score) [24]: -0.801 | glycan array binding signal (z-score) [25]: -0.331 | glycan array binding signal (z-score) [26]: 0.644 | glycan array binding signal (z-score) [27]: -0.328 | glycan array binding signal (z-score) [28]: 2.32 | glycan array binding signal (z-score) [29]: -0.188 | glycan array binding signal (z-score) [30]: 0.605 | glycan array binding signal (z-score) [31]: -0.605 | glycan array binding signal (z-score) [32]: -0.059 | glycan array binding signal (z-score) [33]: 0.533 | glycan array binding signal (z-score) [34]: -0.232 | glycan array binding signal (z-score) [35]: 0.009
